These are yes or no findings as the source states them, for the method shown.
Target: DEPTOR DEP domain tandem (DEPt), residues 1-230 (human) (UniProt Q8TB45)
Test: SAXS; purified DEPt in gel filtration buffer at 2–14 mg/ml, batch mode; scattering fitted with crystal monomer, crystal dimer and cryo-EM models (CRYSOL); both purified

Sequences of proteins named here, by UniProt entry; tags and fusion partners are left off. Residues count along the entry.
UniProt Q8TB45, residues 1-230: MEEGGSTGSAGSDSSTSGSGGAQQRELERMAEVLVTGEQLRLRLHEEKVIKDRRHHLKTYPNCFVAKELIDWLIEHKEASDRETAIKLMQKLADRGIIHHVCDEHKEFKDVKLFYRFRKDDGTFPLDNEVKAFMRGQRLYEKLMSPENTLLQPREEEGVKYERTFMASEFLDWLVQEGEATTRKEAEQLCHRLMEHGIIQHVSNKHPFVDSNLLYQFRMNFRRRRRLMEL

binding: no binding (tested: 2–14 mg/ml)
Substance: DEPTOR DEP domain tandem (DEPt), residues 1-230 (from UniProt Q8TB45 1-230) (domain or fragment)
